PubChem BioAssay AID1259308 – NCATS | 2017
Aim: 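Genes whose loss raises luciferase production in HEK293 cells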 (primary screen). Cells: human HEK293 embryonic kidney cells stably expressing firefly luciferase (HEK-CMV-Luc2-Hygro). Knock-down reagent: single siRNA against human genes, 0.8 pmol siRNA per well. Duration: 72 h. Detection: 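Luciferase light (ONE-Glo) measured on one replicate plate set and viability (CellTiter-Glo) on the other, scaled to a negative control siRNA, with robust z-scores and luciferase per cell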. Scale: total luciferase, z-score and total luciferase, % of control: higher = more reporter protein produced; luciferase per cell, z-score: higher = more reporter output per viable cell. Hit rule: 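An siRNA counts as active if its total luciferase robust z-score exceeds 3; genes with two or more such siRNAs out of three were retested with fresh siRNAs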. Calls: active = raised luciferase; inactive = no rise.
The whole screen tested about 59,000 reagents; shown is an unselected part. About 1,510 of all reagents (2.6%) count as active. 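Calls use total luciferase alone and ignore viability, so some active siRNAs may act by altering cell number.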 The numbers tell different reagents against one gene apart. Further read-outs or replicates are left out here. No sequences are given here.

no.	target	siRNA no.	total luciferase, z-score	total luciferase, % of control	luciferase per cell, z-score	outcome
1	AEN	1	-0.0618	80.7	0.302	inactive
2	AEN	2	-0.333	75.3	0.0399	inactive
3	AEN	3	0.438	90.6	0.161	inactive
4	TNFSF13B	1	0.0902	83.7	0.104	inactive
5	TNFSF13B	2	-1.37	54.6	-1.58	inactive
6	TNFSF13B	3	-1.14	59.3	-0.946	inactive
7	RHOD	1	1.45	111	1.12	inactive
8	RHOD	2	-1.71	47.9	-2.12	inactive
9	RHOD	3	0.676	95.3	1.75	inactive
10	RGS18	1	0.819	98.2	1.48	inactive
11	RGS18	2	0.28	87.5	-0.0825	inactive
12	RGS18	3	0.932	100	1.12	inactive
13	HAPLN1	1	0.261	87.1	-0.109	inactive
14	HAPLN1	2	-0.305	75.8	-0.468	inactive
15	HAPLN1	3	1.29	108	1.21	inactive
16	MC4R	1	0.264	87.1	-0.427	inactive
17	MC4R	2	2.39	129	2.24	inactive
18	MC4R	3	-0.721	67.5	-0.982	inactive
19	GTF3C3	1	0.216	86.2	0.585	inactive
20	GTF3C3	2	-0.253	76.8	-0.355	inactive
21	GTF3C3	3	-0.986	62.3	-0.78	inactive
22	C7orf57	1	-0.0665	80.6	-0.191	inactive
23	C7orf57	2	-0.362	74.7	-0.179	inactive
24	C7orf57	3	3	142	2.67	active
25	SYN1	1	-2	42.2	-2.8	inactive
26	SYN1	2	-0.901	64	-0.928	inactive
27	SYN1	3	0.832	98.4	0.779	inactive
28	WDR46	1	-0.348	75	-0.297	inactive
29	WDR46	2	-1.9	44.1	-2.19	inactive
30	WDR46	3	-2.16	39	-2.45	inactive
31	SNX1	1	-1.96	42.9	-2.38	inactive
32	SNX1	2	-0.157	78.8	-0.346	inactive
33	SNX1	3	-1.38	54.4	-0.619	inactive
34	COPG1	1	0.808	98	1.12	inactive
35	COPG1	2	-0.421	73.5	0.0427	inactive
36	COPG1	3	0.25	86.9	0.019	inactive

Quoted from the entries so far for reference:
no.	target	siRNA no.	total luciferase, z-score	total luciferase, % of control	luciferase per cell, z-score	outcome
1	AEN	1	-0.0618	80.7	0.302	inactive
2	AEN	2	-0.333	75.3	0.0399	inactive
3	AEN	3	0.438	90.6	0.161	inactive

Further entries follow.
no.	target	siRNA no.	total luciferase, z-score	total luciferase, % of control	luciferase per cell, z-score	outcome
37	LSM7	1	0.555	92.9	0.456	inactive
38	LSM7	2	2.25	127	2.67	inactive
39	LSM7	3	1.01	102	2.51	inactive
40	ZBTB37	1	1.63	114	1.85	inactive
41	ZBTB37	2	0.23	86.5	0.423	inactive
42	ZBTB37	3	-0.577	70.4	-0.44	inactive
43	FADS2	1	0.911	100	0.518	inactive
44	FADS2	2	2.69	135	1.68	inactive
45	FADS2	3	-1.38	54.4	-1.64	inactive
46	BCS1L	1	0.534	92.5	0.582	inactive
47	BCS1L	2	-0.152	78.9	-0.607	inactive
48	BCS1L	3	1.18	105	1	inactive
49	KIFC1	1	-0.24	77.1	-0.674	inactive
50	KIFC1	2	-0.633	69.3	-0.841	inactive
51	KIFC1	3	-0.779	66.4	-0.684	inactive
52	TRIM36	1	-0.504	71.9	-0.55	inactive
53	TRIM36	2	-0.191	78.1	1.69	inactive
54	TRIM36	3	-1.04	61.2	-0.663	inactive
55	LINC01100	1	-1.77	46.8	-2.36	inactive
56	LINC01100	2	0.445	90.7	-0.154	inactive
57	LINC01100	3	0.255	87	-0.543	inactive
